Source: the supplement of paper PMC12819154, “High-throughput peptide-centric local stability assay extends protein–ligand identification to membrane proteins, tissues and bacteria” (Nature Structural & Molecular Biology, 2025)
This is one part of the list. Most values lie at the level of the controls, where differences are scatter.

Chains of the proteins cited; added tags and fusions are not shown. Lines headed by an entry give the natural chain unless they say otherwise; changes in a name come on top.
UniProt Q9Z2L6: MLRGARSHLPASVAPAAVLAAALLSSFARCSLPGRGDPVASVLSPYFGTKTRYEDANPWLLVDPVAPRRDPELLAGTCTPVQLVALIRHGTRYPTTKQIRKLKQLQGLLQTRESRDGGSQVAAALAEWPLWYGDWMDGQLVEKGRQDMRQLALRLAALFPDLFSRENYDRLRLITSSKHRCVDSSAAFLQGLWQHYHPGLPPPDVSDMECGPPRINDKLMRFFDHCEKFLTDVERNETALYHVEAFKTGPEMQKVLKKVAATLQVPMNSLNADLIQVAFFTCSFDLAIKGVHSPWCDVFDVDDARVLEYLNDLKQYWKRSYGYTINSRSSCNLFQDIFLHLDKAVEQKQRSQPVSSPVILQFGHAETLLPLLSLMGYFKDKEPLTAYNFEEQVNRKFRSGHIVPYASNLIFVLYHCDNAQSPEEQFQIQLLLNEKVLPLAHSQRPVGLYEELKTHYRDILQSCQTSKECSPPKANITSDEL
UniProt Q9Z2F7: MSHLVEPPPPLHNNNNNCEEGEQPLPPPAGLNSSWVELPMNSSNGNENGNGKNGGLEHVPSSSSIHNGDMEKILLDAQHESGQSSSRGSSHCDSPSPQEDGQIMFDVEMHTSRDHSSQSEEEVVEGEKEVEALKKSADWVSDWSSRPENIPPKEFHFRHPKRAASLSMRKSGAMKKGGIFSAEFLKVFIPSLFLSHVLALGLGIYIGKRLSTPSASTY
UniProt Q9WVL0: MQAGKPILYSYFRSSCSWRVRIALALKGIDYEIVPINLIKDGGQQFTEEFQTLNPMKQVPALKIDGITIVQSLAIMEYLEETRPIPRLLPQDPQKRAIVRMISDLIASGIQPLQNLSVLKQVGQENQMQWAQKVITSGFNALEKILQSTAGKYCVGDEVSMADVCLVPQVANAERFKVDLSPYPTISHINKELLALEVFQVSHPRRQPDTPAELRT
UniProt Q9QZS2: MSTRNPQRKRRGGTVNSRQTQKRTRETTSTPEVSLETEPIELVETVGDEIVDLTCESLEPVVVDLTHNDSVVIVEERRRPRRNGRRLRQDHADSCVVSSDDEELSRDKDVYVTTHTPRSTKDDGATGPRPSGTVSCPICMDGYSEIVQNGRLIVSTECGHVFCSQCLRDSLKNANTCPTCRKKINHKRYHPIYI
UniProt Q9Z0U1: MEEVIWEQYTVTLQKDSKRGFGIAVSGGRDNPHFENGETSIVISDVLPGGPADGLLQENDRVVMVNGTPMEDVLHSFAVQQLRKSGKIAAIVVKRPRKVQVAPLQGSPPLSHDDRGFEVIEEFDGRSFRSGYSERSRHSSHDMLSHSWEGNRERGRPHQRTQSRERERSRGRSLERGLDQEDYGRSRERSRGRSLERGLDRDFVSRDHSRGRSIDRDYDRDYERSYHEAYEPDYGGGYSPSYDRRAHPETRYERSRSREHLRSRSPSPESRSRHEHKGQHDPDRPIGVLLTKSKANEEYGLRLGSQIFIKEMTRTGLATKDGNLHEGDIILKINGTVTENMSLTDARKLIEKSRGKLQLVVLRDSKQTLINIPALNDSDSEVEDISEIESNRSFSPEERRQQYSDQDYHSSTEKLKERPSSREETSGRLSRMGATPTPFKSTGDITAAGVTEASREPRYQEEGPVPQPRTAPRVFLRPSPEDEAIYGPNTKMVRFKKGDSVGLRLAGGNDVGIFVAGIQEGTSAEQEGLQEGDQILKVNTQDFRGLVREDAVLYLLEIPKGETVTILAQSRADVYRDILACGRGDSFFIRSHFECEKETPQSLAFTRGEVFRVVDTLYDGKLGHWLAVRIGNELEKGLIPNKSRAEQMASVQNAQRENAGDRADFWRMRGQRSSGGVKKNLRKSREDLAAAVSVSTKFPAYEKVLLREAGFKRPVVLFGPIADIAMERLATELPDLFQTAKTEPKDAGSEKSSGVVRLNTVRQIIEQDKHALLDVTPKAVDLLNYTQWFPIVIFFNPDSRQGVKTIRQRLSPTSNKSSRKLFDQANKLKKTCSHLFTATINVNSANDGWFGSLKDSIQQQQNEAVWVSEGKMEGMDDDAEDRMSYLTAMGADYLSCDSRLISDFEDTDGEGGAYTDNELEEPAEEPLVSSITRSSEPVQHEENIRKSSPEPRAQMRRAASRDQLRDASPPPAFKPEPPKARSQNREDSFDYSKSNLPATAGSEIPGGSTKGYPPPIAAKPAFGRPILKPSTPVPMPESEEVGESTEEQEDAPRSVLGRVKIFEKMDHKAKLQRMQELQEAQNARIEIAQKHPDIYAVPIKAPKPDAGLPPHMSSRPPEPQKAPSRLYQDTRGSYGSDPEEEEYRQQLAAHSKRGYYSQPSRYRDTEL
UniProt Q9WUH7: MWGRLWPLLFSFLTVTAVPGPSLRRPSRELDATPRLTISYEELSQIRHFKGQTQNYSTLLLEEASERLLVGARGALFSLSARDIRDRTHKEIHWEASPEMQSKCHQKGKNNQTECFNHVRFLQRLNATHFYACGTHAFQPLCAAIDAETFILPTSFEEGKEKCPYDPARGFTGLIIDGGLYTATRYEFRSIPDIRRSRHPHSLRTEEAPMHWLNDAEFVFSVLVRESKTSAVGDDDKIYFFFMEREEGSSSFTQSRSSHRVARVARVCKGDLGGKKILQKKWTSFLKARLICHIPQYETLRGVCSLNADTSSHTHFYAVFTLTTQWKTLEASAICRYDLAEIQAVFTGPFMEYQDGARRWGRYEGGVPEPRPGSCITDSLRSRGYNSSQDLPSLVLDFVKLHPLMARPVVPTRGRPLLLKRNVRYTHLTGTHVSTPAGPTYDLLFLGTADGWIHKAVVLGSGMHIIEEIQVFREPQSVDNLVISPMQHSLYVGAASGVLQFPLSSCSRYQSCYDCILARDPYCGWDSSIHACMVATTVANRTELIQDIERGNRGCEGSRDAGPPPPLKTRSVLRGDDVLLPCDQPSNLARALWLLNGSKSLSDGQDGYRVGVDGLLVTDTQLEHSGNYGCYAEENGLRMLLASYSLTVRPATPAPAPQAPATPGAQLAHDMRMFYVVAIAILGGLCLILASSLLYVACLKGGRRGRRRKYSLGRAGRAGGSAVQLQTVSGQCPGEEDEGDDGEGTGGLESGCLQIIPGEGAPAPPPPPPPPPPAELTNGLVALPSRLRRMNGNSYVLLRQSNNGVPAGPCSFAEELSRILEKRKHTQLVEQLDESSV
UniProt Q9QZW0: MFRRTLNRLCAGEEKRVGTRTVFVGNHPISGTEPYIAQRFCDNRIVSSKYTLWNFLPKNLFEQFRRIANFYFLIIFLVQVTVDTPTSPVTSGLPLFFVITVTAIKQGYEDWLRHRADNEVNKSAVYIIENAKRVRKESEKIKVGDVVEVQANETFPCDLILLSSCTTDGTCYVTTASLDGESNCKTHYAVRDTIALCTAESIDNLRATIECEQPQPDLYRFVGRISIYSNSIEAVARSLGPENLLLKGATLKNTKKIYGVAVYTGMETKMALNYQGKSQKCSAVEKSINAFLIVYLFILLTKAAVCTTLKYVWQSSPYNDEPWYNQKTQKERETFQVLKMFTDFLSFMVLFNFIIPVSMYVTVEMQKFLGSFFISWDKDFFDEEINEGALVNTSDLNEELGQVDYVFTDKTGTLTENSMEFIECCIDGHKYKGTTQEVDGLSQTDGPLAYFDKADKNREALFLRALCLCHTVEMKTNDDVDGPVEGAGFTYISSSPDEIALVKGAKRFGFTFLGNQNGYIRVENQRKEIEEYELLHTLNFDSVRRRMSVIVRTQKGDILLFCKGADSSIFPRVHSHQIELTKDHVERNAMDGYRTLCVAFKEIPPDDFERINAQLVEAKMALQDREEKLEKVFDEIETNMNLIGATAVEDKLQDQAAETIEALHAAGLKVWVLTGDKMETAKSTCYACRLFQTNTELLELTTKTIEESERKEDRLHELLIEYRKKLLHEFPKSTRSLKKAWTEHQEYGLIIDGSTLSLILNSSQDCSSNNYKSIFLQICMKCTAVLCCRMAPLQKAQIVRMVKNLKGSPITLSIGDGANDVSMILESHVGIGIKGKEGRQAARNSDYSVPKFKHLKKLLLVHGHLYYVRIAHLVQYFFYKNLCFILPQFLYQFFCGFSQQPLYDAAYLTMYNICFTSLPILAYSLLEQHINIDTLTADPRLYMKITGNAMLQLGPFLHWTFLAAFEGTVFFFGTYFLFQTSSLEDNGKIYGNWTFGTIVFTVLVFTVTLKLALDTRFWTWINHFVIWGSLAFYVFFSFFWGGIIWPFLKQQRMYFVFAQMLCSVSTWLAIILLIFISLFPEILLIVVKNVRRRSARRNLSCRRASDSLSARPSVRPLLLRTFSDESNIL
UniProt Q9WV68: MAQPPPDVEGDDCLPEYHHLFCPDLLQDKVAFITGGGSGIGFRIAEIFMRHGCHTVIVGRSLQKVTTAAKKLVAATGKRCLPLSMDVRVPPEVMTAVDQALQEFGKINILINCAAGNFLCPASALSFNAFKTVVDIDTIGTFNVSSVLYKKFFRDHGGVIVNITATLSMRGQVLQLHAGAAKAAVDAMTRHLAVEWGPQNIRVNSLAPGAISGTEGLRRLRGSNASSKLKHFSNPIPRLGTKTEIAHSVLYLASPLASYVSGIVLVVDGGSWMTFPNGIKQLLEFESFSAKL
UniProt Q9QZD9, whole entry: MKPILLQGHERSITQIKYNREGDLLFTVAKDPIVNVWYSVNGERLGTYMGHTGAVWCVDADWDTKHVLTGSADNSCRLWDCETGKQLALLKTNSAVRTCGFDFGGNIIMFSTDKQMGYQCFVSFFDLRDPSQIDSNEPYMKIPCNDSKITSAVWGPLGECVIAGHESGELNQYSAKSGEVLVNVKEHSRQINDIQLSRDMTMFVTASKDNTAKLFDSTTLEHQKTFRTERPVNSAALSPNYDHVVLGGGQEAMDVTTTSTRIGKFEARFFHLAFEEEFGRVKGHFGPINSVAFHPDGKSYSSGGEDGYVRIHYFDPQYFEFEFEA
UniProt Q9WUQ2: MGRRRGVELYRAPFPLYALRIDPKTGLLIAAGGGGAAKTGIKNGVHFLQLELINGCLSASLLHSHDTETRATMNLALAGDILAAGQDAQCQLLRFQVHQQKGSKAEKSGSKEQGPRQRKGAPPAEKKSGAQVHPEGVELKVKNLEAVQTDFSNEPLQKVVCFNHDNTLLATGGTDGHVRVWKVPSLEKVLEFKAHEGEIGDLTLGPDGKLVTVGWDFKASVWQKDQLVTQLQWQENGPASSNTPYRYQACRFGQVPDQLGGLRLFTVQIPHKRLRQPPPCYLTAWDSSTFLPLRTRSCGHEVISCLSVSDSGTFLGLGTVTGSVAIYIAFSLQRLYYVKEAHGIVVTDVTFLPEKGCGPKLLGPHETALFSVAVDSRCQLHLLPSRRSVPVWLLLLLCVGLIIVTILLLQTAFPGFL
UniProt Q9QZ08, whole entry: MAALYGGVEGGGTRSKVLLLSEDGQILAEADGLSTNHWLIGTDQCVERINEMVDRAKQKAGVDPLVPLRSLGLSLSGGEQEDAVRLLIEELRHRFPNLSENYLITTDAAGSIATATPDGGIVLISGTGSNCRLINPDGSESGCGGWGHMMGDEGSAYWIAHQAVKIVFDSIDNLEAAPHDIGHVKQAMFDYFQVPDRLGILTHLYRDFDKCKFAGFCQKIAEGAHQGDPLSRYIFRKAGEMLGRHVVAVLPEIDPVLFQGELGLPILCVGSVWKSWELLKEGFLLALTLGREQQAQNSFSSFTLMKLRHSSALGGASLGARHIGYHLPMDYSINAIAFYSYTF
UniProt Q9Z0H7: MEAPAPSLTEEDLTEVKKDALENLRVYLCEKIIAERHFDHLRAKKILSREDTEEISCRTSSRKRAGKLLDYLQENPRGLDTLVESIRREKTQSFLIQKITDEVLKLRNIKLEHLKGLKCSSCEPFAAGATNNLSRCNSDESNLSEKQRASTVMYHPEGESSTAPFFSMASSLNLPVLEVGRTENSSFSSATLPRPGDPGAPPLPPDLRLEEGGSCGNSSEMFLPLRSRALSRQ
UniProt Q9Z2I0: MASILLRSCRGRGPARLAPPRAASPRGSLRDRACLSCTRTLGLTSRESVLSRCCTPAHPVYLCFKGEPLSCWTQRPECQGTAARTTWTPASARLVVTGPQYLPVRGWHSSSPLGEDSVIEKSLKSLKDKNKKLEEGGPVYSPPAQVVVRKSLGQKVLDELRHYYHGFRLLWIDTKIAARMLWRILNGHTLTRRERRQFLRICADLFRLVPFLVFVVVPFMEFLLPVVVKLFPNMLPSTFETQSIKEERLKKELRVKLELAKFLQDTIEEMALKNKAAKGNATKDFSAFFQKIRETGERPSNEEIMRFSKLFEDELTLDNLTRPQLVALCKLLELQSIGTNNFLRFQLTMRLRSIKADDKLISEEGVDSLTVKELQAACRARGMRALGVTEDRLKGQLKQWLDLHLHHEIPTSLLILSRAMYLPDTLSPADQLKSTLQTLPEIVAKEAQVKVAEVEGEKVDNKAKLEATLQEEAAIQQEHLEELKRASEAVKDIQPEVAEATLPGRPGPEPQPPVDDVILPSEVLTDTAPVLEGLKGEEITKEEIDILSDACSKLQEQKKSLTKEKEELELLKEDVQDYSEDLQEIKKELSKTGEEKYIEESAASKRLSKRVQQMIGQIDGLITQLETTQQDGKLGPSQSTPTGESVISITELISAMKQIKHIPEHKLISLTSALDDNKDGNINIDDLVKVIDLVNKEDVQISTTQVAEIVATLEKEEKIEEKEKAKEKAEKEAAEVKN

The targets below were run with CN[C@@H]1C[C@H]2O[C@@](C)([C@@H]1OC)n1c3ccccc3c3c4c(c5c6ccccc6n2c5c31)C(=O)NC4 [staurosporine] (assay: log2 fold change of pooled soluble protein (PISA), ligand vs vehicle (log2 ratio); higher = more thermally stabilized). Conditions: ligand concentration: 20 uM; assay format: PISA pool 52.9/55.5/58.6 C.

Target	log2 fold change of pooled soluble protein
UniProt Q9Z2L6	0.0393
UniProt Q9Z2F7	-0.349
UniProt Q9Z0J0	-0.0097
UniProt Q9WVL0	0.0411
UniProt Q9QZC2	-0.208
UniProt Q9Z2D8	-0.131
UniProt Q9QZS2	0.0929
UniProt Q9Z2K1	-0.464
UniProt Q9Z2R9	0.0692
UniProt Q9Z0U1	-0.013
UniProt Q9Z223	-0.0494
UniProt Q9WUH7	0.0398
UniProt Q9R1T4	0.0981
UniProt Q9Z0P4	0.15
UniProt Q9Z2Z6	-0.0547
UniProt Q9R112	-0.0484
UniProt Q9WV92	0.0069
UniProt Q9QZW0	0.00907
UniProt Q9Z2A9	0.0629
UniProt Q9Z1M8	-0.104

3 entries drawn at random from those above, as already listed:
Target	log2 fold change of pooled soluble protein
UniProt Q9Z2Z6	-0.0547
UniProt Q9R112	-0.0484
UniProt Q9Z2A9	0.0629

Remaining list, next part.

Target	log2 fold change of pooled soluble protein
UniProt Q9WV68	-0.0252
UniProt Q9Z2Q5	-0.103
UniProt Q9QZD9	-0.00102
UniProt Q9Z1Q2	0.0832
UniProt Q9QZ23	0.12
UniProt Q9Z2V4	-0.0542
UniProt Q9WUQ2	-0.23
UniProt Q9QZ08	-0.244
UniProt Q9Z0H7	-0.0879
UniProt Q9Z2I0	0.0401
UniProt Q9QZM0	0.00105
UniProt Q9Z1K5	-0.0752
UniProt Q9R182	0.174
UniProt Q9R0N0	0.0198
UniProt Q9Z2H5	0.0526
UniProt Q9WUD1	-0.0359
UniProt Q9Z0J1	0.0614
UniProt Q9QZB9	0.00157
UniProt Q9R0L6	0.329
